From US20250352448A1, “COMPOSITION FOR IMPROVING SKIN CONDITIONS” (AJINOMOTO CO., INC., priority 2022, published 2025)
At least one compound was matched to its structure with a doubt left.

Tests used:
[1] = test system: desmoglein-1; experiment: desmoglein-1 production in amino acid-depleted epidermal keratinocytes (ELISA); assay type: cell-based; settings: Experimental Example 3-1-1, FIG. 4A; human skin-simulating medium 1; final Leu 0.80, Met 0.20, Phe 0.40, Trp 0.08 mM or Phe 0.40 mM alone; cultured 5 days
[2] = test system: caspase-14; experiment: caspase-14 production in amino acid-depleted epidermal keratinocytes (ELISA); assay type: cell-based; settings: Experimental Example 3-3-1, FIG. 6A; human skin-simulating medium 2; final His 0.2, Leu 0.8, Val 0.8 mM, Val 0.8 mM alone or His 0.2 mM alone; cultured 4 days
Source text: Culture media ([…] medium) used for cell culture contain amino acids necessary for cells to survive and grow. […] human skin-simulating medium 2: The essential amino acids in D-MEM (Life Technologies 21068-028) were changed to the concentrations shown in Table 10, human skin-simulating medium 2. […] The next day, the medium was replaced with the medium of evaluation condition (5)-(7). • Evaluation condition (5): Human skin-simulating medium 2 (hereinafter the sample evaluated under evaluation condition (5) is referred to as “Control 3”). • Evaluation condition (6): Medium obtained by adding His (final concentration 0.2 mM), Leu (final concentration 0.8 mM), Val (final concentration 0.8 mM) to human skin-simulating medium 2 (hereinafter the sample evaluated under evaluation condition (6) is referred to as “Example 3”). • Evaluation condition (7): Medium obtained by adding His (final concentration 0.2 mM) to human skin-simulating medium 2 (hereinafter the sample evaluated under evaluation condition (7) is referred to as “Example 4”). […] The protein extract of the above-mentioned 4 was diluted with water, and the protein was quantified using Micro BCA Protein Assay Kit (Thermo Fisher Scientific 23235). • 6. The amount of caspase-14 determined in the above-mentioned 4 was normalized by the amount of protein determined in the above-mentioned 5. • 7. […]

Structure (SMILES) | amount of desmoglein-1 (normalized by protein amount, Control 4 as 100%) [1] | amount of caspase-14 (normalized by protein amount, Control 7 as 100%) [2]
N[C@@H](Cc1ccccc1)C(=O)O [Phe, phenylalanine] | remarkably increased | 
CC(C)[C@H](N)C(=O)O [Val, valine] |  | remarkably increased
